According to article PMC4526233:
No constants are given. Whether binding was seen depends on the method and setting. In cells and extracts the contact can be indirect. Some results given as binding are weak or reduced against the parent protein; the word gives no strength. Sequences can lack the tags named with a protein.

Amino acid sequences for entries named in this document (tags omitted).
UniProt Q92598: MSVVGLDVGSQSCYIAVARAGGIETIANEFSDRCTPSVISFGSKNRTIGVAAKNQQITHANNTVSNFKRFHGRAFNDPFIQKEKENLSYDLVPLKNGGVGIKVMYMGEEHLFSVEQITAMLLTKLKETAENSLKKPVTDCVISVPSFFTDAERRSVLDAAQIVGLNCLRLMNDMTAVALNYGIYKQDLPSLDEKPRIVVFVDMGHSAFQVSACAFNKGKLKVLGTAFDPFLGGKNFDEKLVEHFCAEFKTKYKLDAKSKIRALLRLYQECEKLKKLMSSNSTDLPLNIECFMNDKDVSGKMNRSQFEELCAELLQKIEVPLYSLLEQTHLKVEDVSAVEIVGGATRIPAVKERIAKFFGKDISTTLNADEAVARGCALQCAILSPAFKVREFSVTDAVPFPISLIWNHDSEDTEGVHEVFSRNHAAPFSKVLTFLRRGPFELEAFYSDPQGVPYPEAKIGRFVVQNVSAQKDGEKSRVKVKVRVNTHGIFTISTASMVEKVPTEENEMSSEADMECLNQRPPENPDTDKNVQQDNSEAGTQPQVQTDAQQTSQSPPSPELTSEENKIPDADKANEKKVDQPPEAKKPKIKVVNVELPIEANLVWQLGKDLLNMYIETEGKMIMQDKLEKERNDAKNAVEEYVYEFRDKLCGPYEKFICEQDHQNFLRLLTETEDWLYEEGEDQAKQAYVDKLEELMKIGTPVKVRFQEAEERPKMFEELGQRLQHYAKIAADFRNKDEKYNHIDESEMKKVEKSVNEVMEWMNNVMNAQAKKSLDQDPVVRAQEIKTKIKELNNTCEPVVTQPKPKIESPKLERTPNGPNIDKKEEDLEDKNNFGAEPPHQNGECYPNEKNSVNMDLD

Biological target: T1, 3x-FLAG tagged B14 (B14-3xF) (UniProt Q8TBM8)
T1 sequence: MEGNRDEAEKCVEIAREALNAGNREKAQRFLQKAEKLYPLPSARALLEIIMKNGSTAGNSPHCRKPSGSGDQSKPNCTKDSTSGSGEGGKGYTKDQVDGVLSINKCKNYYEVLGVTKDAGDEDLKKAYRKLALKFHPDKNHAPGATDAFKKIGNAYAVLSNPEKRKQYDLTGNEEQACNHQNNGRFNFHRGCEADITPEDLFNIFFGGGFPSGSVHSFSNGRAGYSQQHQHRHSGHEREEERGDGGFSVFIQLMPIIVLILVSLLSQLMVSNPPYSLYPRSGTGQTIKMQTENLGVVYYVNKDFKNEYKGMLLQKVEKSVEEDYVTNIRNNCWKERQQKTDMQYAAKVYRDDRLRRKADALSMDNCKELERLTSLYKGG
Test: co-IP

binding: binds
Substance: Hsp105 (endogenous, Flp-In 293 T-Rex cells) (from UniProt Q92598 1-858)
